PubChem BioAssay AID1259260, Sanger Institute, 2017
Test: 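Essential and drug-synergistic kinases in a colorectal cancer cell line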 (primary screen). Cells: human NCI-H716 colorectal cancer cells. Reagent: siRNA pool against human genes. Conditions: anchor drugs BYL719 (alpelisib) 1 µM, cetuximab 5 µg/ml or trametinib 10 nM, each at a dose chosen to harm viability only mildly; DMSO vehicle for the knock-down-alone arm. Measurement: 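Replicate-averaged viability relative to a non-targeting pool, a robust z-score for knock-down alone, and a synergy score per anchor drug versus each agent alone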. Direction: viability robust z-score, siRNA alone: higher = more surviving cells; below -3 called essential. Active means: 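Essential when the robust z-score for knock-down alone falls below -3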. Meaning of the calls: active = essential (knock-down alone lowers viability); inactive = no essential effect.
This is an unselected part of 794 deposited reagents. In the full data, 13 (1.6%) were called active. 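Calls reflect only knock-down without drug; synergy above 0.15 was grouped apart and does not change the call.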 Unmarked entries are inactive. Not all columns of the deposit are shown. The record does not give: the amount of reagent, the time to read-out.

EPHA3: viability robust z-score, siRNA alone = 0.602
PRKAG3: viability robust z-score, siRNA alone = -1.9
STYK1: viability robust z-score, siRNA alone = -0.914
IGF2R: viability robust z-score, siRNA alone = 0.602
PSKH1: viability robust z-score, siRNA alone = 0.602
SMAD4: viability robust z-score, siRNA alone = 0.602
TPD52L3: viability robust z-score, siRNA alone = 0.602
MOK: viability robust z-score, siRNA alone = -1.37
WIPF1: viability robust z-score, siRNA alone = -3.45 (active)
RPS6KC1: viability robust z-score, siRNA alone = 0.602
PKMYT1: viability robust z-score, siRNA alone = 0.182
MAP3K6: viability robust z-score, siRNA alone = 0.602
FN1: viability robust z-score, siRNA alone = 0.602
MPP2: viability robust z-score, siRNA alone = 0.602
LMBR1: viability robust z-score, siRNA alone = 0.602
DAPK1: viability robust z-score, siRNA alone = 0.602
PRKCZ: viability robust z-score, siRNA alone = -1.41
BRD2: viability robust z-score, siRNA alone = -0.0781
PIK3C2G: viability robust z-score, siRNA alone = 0.602
CDKL2: viability robust z-score, siRNA alone = -1.22
TLK2: viability robust z-score, siRNA alone = 0.602
DGKA: viability robust z-score, siRNA alone = 0.602
MKNK1: viability robust z-score, siRNA alone = 0.602
CDK6: viability robust z-score, siRNA alone = 0.602
FN3KRP: viability robust z-score, siRNA alone = -1.43
AKT3: viability robust z-score, siRNA alone = 0.602
EPHB6: viability robust z-score, siRNA alone = 0.602
PDGFRB: viability robust z-score, siRNA alone = -0.201

Copied from the entries so far, 3 entries:
FN1: viability robust z-score, siRNA alone = 0.602
MPP2: viability robust z-score, siRNA alone = 0.602
LMBR1: viability robust z-score, siRNA alone = 0.602
